{"source": "PubChem BioAssay AID1259308 (NCATS, 2017)", "purpose": "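Knock-downs that increase output of a recombinant reporter protein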 (primary screen)", "system": "human HEK293 embryonic kidney cells stably expressing firefly luciferase (HEK-CMV-Luc2-Hygro)", "knock-down reagent": "single siRNA against human genes, 0.8 pmol siRNA per well", "duration": "72 h", "detection": "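Luciferase light (ONE-Glo) measured on one replicate plate set and viability (CellTiter-Glo) on the other, scaled to a negative control siRNA, with robust z-scores and luciferase per cell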", "reading the numbers": "total luciferase, z-score and total luciferase, % of control: higher = more reporter protein produced", "active means": "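An siRNA counts as active if its total luciferase robust z-score exceeds 3; genes with two or more such siRNAs out of three were retested with fresh siRNAs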", "meaning of the calls": "active = raised luciferase; inactive = no rise", "note": "The whole screen tested about 59,000 reagents; shown is a part drawn at random. Over the whole deposit, about 1,510 (2.6%) are marked active. 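Calls use total luciferase alone and ignore viability, so some active siRNAs may act by altering cell number.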 The numbers tell different reagents against one gene apart. Further read-outs or replicates are left out here."}
{"Target gene": "IHH (Indian hedgehog signaling molecule)", "reagent no.": 1, "total luciferase, z-score": -0.178, "total luciferase, % of control": 78.4, "outcome": "inactive"}
{"Target gene": "IHH (Indian hedgehog signaling molecule)", "reagent no.": 2, "total luciferase, z-score": -0.207, "total luciferase, % of control": 77.8, "outcome": "inactive"}
{"Target gene": "IHH (Indian hedgehog signaling molecule)", "reagent no.": 3, "total luciferase, z-score": 2.78, "total luciferase, % of control": 137, "outcome": "inactive"}
{"Target gene": "MRPL19 (mitochondrial ribosomal protein L19)", "reagent no.": 1, "total luciferase, z-score": -0.0577, "total luciferase, % of control": 80.7, "outcome": "inactive"}
{"Target gene": "MRPL19 (mitochondrial ribosomal protein L19)", "reagent no.": 2, "total luciferase, z-score": -0.426, "total luciferase, % of control": 73.4, "outcome": "inactive"}
{"Target gene": "MRPL19 (mitochondrial ribosomal protein L19)", "reagent no.": 3, "total luciferase, z-score": -0.183, "total luciferase, % of control": 78.2, "outcome": "inactive"}

Part of the list above, limited to “total luciferase, z-score”.
MRPL19 (mitochondrial ribosomal protein L19) #2	-0.426
MRPL19 (mitochondrial ribosomal protein L19) #3	-0.183

Additional results follow.
{"Target gene": "CRLF1 (cytokine receptor like factor 1)", "reagent no.": 1, "total luciferase, z-score": -0.00729, "total luciferase, % of control": 81.7, "outcome": "inactive"}
{"Target gene": "CRLF1 (cytokine receptor like factor 1)", "reagent no.": 2, "total luciferase, z-score": -1.99, "total luciferase, % of control": 42.3, "outcome": "inactive"}
{"Target gene": "CRLF1 (cytokine receptor like factor 1)", "reagent no.": 3, "total luciferase, z-score": 0.0353, "total luciferase, % of control": 82.6, "outcome": "inactive"}
{"Target gene": "TNRC18P1 (trinucleotide repeat containing 18 pseudogene 1)", "reagent no.": 1, "total luciferase, z-score": 0.868, "total luciferase, % of control": 99.2, "outcome": "inactive"}
{"Target gene": "TNRC18P1 (trinucleotide repeat containing 18 pseudogene 1)", "reagent no.": 2, "total luciferase, z-score": 1.09, "total luciferase, % of control": 104, "outcome": "inactive"}
{"Target gene": "TNRC18P1 (trinucleotide repeat containing 18 pseudogene 1)", "reagent no.": 3, "total luciferase, z-score": -1.57, "total luciferase, % of control": 50.7, "outcome": "inactive"}
